Results from publication PMC11967818.
These are yes or no findings as the source states them, for the method shown. In cells and extracts the contact can be indirect. These calls come from enrichment with a bait or labelling near it, and not all partners need be listed.

Protein sequences, listed by entry. Tags and fused reporters are not part of them.
UniProt Q9Z204: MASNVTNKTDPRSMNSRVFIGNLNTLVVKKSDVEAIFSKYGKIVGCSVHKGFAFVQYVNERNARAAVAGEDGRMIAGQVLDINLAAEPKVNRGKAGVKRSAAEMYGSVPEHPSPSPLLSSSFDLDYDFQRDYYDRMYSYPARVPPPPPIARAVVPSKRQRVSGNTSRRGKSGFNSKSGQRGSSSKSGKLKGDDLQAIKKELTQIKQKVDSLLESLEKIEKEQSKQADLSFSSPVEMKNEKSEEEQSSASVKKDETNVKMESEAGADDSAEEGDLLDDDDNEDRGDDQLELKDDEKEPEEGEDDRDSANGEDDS

B1: SF3A1 (protein, UniProt Q8K4Z5 1-791)
chain: MQAGPVQAVPPPPPVATESKQPIEEEASSKEDPTPSKPVVGIIYPPPEVRNIVDKTASFVARNGPEFEARIRQNEINNPKFNFLNPNDPYHAYYRHKVSEFKEGKAQEPSAAIPKVMQQQQQATQQQLPQKVQAQVIQETIVPKEPPPEFEFIADPPSISAFDLDVVKLTAQFVARNGRQFLTQLMQKEQRNYQFDFLRPQHSLFNYFTKLVEQYTKILIPPKGLFSKLKKEAENPREVLDQVCYRVEWAKFQERERKKEEEEKEKERVAYAQIDWHDFVVVETVDFQPNEQGNFPPPTTPEELGARILIQERYEKFGESEEVEMEVESDEEDQEKAEETPSQLDQDTQVQDMDEGSDDEEEGQKVPPPPETPMPPPLPPTPDQVIVRKDYDPKASKPLPPAPAPDEYLVSPITGEKIPASKMQEHMRIGLLDPRWLEQRDRSIREKQSDDEVYAPGLDIESSLKQLAERRTDIFGVEETAIGKKIGEEEIQKPEEKVTWDGHSGSMARTQQAAQANITLQEQIEAIHKAKGLVPEDDTKEKIGPSKPNEIPQQPPPPSSATNIPSSAPPITSVPRPPAMPPPVRTTVVSAVPVMPRPPMASVVRLPPGSVIAPMPPIIHAPRINVVPMPPAAPPIMAPRPPPMIVPTAFVPAPPVAPVPAPAPMPPVHPPPPMEDEPPSKKLKTEDSLMPEEEFLRRNKGPVSIKVQVPNMQDKTEWKLNGQGLVFTLPLTDQVSVIKVKIHEATGMPAGKQKLQYEGIFIKDSNSLAYYNMASGAVIHLALKERGGRKK
B2: SRSF3 (protein, UniProt P84104 1-164)
chain: MHRDSCPLDCKVYVGNLGNNGNKTELERAFGYYGPLRSVWVARNPPGFAFVEFEDPRDAADAVRELDGRTLCGCRVRVELSNGEKRSRNRGPPPSWGRRPRDDYRRRSPPPRRRSPRRRSFSRSRSRSLSRDRRRERSLSRERNHKPSRSFSRSRSRSRSNERK
B3: SRSF7 (protein, UniProt Q8BL97 1-267)
chain: MRSSARGRPLQAATAFFLSLFFFLRRFERGFWLWGGDSETKVYVGNLGTGAGKGELERAFSYYGPLRTVWIARNPPGFAFVEFEDPRDAEDAVRGLDGKVICGSRVRVELSTGMPRRSRFDRPPARRPFDPNDRCYECGEKGHYAYDCHRYSRRRRSRSRSRSHSRSRGRRYSRSRSRSRGRRSRSASPRRSRSVSLRRSRSASLRRSRSGSIIGSRYFQSRSRSRSRSRSISRPRSSRSKSRSPSPKRSRSPSGSPHRSASPERMD
B4: BUD31 (protein, UniProt Q6PGH1 1-144)
chain: MPKVKRSRKAPPDGWELIEPTLDELDQKMREAETEPHEGKRKVESLWPIFRIHHQKTRYIFDLFYKRKAISRELYEYCIKEGYADKNLIAKWKKQGYENLCCLRCIQTRDTNFGTNCICRVPKSKLEVGRIIECTHCGCRGCSG
B5: SF3B3 (protein, UniProt Q921M3 1-1217)
chain: MFLYNLTLQRATGISFAIHGNFSGTKQQEIVVSRGKILELLRPDPNTGKVHTLLTVEVFGVIRSLMAFRLTGGTKDYIVVGSDSGRIVILEYQPSKNMFEKIHQETFGKSGCRRIVPGQFLAVDPKGRAVMISAIEKQKLVYILNRDAAARLTISSPLEAHKANTLVYHVVGVDVGFENPMFACLEMDYEEADNDPTGEAAANTQQTLTFYELDLGLNHVVRKYSEPLEEHGNFLITVPGGSDGPSGVLICSENYITYKNFGDQPDIRCPIPRRRNDLDDPERGMIFVCSATHKTKSMFFFLAQTEQGDIFKITLETDEDMVTEIRLKYFDTVPVAAAMCVLKTGFLFVASEFGNHYLYQIAHLGDDDEEPEFSSAMPLEEGDTFFFQPRPLKNLVLVDELDSLSPILFCQIADLANEDTPQLYVACGRGPRSSLRVLRHGLEVSEMAVSELPGNPNAVWTVRRHIEDEFDAYIIVSFVNATLVLSIGETVEEVTDSGFLGTTPTLSCSLLGDDALVQVYPDGIRHIRADKRVNEWKTPGKKTIVKCAVNQRQVVIALTGGELVYFEMDPSGQLNEYTERKEMSADVVCMSLANVPPGEQRSRFLAVGLVDNTVRIISLDPSDCLQPLSMQALPAQPESLCIVEMGGTEKQDELGERGSIGFLYLNIGLQNGVLLRTVLDPVTGDLSDTRTRYLGSRPVKLFRVRMQGQEAVLAMSSRSWLSYSYQSRFHLTPLSYETLEFASGFASEQCPEGIVAISTNTLRILALEKLGAVFNQVAFPLQYTPRKFVIHPESNNLIIIETDHNAYTEATKAQRKQQMAEEMVEAAGEDERELAAEMAAAFLNENLPESIFGAPKAGNGQWASVIRVMNPIQGNTLDLVQLEQNEAAFSVAVCRFSNTGEDWYVLVGVAKDLILSPRSVAGGFVYTYKLVNNGEKLEFLHKTPVEEVPAAIAPFQGRVLIGVGKLLRVYDLGKKKLLRKCENKHIANYISGIQTIGHRVIVSDVQESFIWVRYKRNENQLIIFADDTYPRWVTTASLLDYDTVAGADKFGNICVVRLPPNTNDEVDEDPTGNKALWDRGLLNGASQKAEVIMNYHVGETVLSLQKTTLIPGGSESLVYTTLSGGIGILVPFTSHEDHDFFQHVEMHLRSEHPPLCGRDHLSFRSYYFPVKNVIDGDLCEQFNSMEPNKQKNVSEELDRTPPEVSKKLEDIRTRYAF

molecular target: hnRNPC (mouse (endogenous in P8 testes)) (UniProt Q9Z204); experiment: affinity purification with mass spectrometry; P8 mouse testis lysate; immunoprecipitation with anti-hnRNPC antibody or IgG on Protein G magnetic beads; SDS-PAGE, in-gel trypsin digestion, LC-MS/MS (Q Exactive), MaxQuant against Mus musculus

binding, binds:
B1
B2
B3
B4
B5
